Values of other authors as cited in patent publication US20030211475A1, “Methods for identifying pathway-specific reporters and target genes, and uses thereof” (Rosetta Inpharmatics, Inc., priority 1999, published 2003).
At least one compound was matched to its structure with a doubt left.

Tested on: wild type yeast cells
Settings: 10 micrograms/ml, wild type yeast cells (Gari et al., 1997); cited from earlier work

C[C@H]1c2cccc(O)c2C(=O)C2=C(O)[C@]3(O)C(=O)C(C(N)=O)=C(O)[C@@H](N(C)C)[C@@H]3[C@@H](O)[C@@H]21 [doxycycline]
effect on the growth rate: no significant effect
